Data on 19 sequences can be found in publication PMC8384837.

Common to all, as to conditions: yeast three-hybrid, YBZ-1, SC-Leu-His + 0.5 mM 3-AT, 4 days
The target of assay [1] is T1, PUM1 PUF domain R3-THE R4-TFR R7-NPG C935T + R936H + Q939E + N971T + H972F + Q975R + S1079N + N1080P + E1083G (UniProt Q14671).
T1 sequence: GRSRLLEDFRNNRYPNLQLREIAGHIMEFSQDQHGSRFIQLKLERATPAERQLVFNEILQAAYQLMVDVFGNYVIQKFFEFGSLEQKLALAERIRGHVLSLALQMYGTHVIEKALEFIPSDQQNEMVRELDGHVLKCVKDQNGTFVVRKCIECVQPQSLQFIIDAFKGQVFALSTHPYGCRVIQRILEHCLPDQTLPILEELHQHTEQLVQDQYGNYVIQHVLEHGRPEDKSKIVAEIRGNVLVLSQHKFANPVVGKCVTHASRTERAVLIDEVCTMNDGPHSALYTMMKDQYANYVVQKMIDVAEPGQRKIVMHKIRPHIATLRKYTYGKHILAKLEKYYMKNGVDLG

Assay [2] deals with T2, PUM1 PUF domain R5-PHQ R6-SWD C1007P + R1008H + N1043S + Y1044W + Q1047D (UniProt Q14671).
T2 sequence: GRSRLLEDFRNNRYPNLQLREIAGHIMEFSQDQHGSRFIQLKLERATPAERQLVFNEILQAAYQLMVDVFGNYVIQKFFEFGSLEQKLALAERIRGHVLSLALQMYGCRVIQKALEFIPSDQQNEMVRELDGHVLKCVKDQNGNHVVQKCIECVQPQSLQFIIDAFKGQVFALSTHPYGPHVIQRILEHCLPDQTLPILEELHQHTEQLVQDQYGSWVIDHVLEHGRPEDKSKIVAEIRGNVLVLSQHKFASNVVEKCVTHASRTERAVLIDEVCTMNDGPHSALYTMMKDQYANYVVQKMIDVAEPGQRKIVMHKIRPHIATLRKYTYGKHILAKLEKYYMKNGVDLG

Assay [3] deals with T3, PUM1 PUF domain R6-SWD R7-NPG N1043S + Y1044W + Q1047D + S1079N + N1080P + E1083G (Homo sapiens) (UniProt Q14671).
T3 sequence: T2 sequence with P180C, H181R, S252N, N253P, E256G

Assay [4] deals with T4, PUM1 PUF domain R3-THE R4-TFR R7-NPG C935T + R936H + Q939E + N971T + H972F + Q975R + S1079N + N1080P + E1083G (Homo sapiens) (UniProt Q14671).
T4 sequence: T1 sequence

Assay [5] deals with T5, PUM1 PUF domain R8-GWR N1122G + Y1123W + Q1126R (UniProt Q14671).
T5 sequence: T2 sequence with P180C, H181R, S216N, W217Y, D220Q, N295G, Y296W, Q299R

Residue numbers refer to the chain shown, from its start. The list shows a part of the results. For some assays here: At the low end of the ranking the order means little. For some assays here: The exact form of the protein is not confirmed.

In the case of “GGCUAGAACUAGUGGAUCCCCCGGCGCCCGGCGGCUCGAGCCCGGGUAAGAUGAAGCCGUCUGCAUGCCGCCGGGCGCCAUGCCUGCAGGUCGACUCUAGAAAACAUG”, the binding signal (log2 enrichment (interaction score)) in assay [1] is -2.88; in assay [2], below -7.42; in assay [3], -1.89.

Turning to “GGCUAGAACUAGUGGAUCCCCCGGCGCCCGGCGGCUCGAGCCCGGGUAAGCUUUAAACGUCUGCAUGCCGCCGGGCGCCAUGCCUGCAGGUCGACUCUAGAAAACAUG”, the binding signal (log2 enrichment (interaction score)) in assay [1] was -2.01. Consider “GGCUAGAACUAGUGGAUCCCCCGGCGCCCGGCGGCUCGAGCCCGGGUAAGGGAGUGGCGUCUGCAUGCCGCCGGGCGCCAUGCCUGCAGGUCGACUCUAGAAAACAUG”, for which the binding signal (log2 enrichment (interaction score)) in assay [1] was below -2.6. Turning to “GGCUAGAACUAGUGGAUCCCCCGGCGCCCGGCGGCUCGAGCCCGGGUAAGUUUUAAUAGUCUGCAUGCCGCCGGGCGCCAUGCCUGCAGGUCGACUCUAGAAAACAUG”, the binding signal (log2 enrichment (interaction score)) in assay [1] is -2.52; in assay [2], -7.67. In the case of “GGCUAGAACUAGUGGAUCCCCCGGCGCCCGGCGGCUCGAGCCCGGGUAAGUGAGCCUAGUCUGCAUGCCGCCGGGCGCCAUGCCUGCAGGUCGACUCUAGAAAACAUG”, the binding signal (log2 enrichment (interaction score)) in assay [1] was below -2.3; in assay [2], -6.19. In the case of “GGCUAGAACUAGUGGAUCCCCCGGCGCCCGGCGGCUCGAGCCCGGGUAAGUGUGCAAAGUCUGCAUGCCGCCGGGCGCCAUGCCUGCAGGUCGACUCUAGAAAACAUG”, the binding signal (log2 enrichment (interaction score)) was -2.01 in assay [1] and -7.29 in assay [2]. In the case of “GGCUAGAACUAGUGGAUCCCCCGGCGCCCGGCGGCUCGAGCCCGGGUAAGUUUUACCCGUCUGCAUGCCGCCGGGCGCCAUGCCUGCAGGUCGACUCUAGAAAACAUG”, the binding signal (log2 enrichment (interaction score)) in assay [1] was below -2.

For “GGCUAGAACUAGUGGAUCCCCCGGCGCCCGGCGGCUCGAGCCCGGGUAAGGUGUUAAAGUCUGCAUGCCGCCGGGCGCCAUGCCUGCAGGUCGACUCUAGAAAACAUG”, in assay [1], the binding signal (log2 enrichment (interaction score)) was -3.26. Still for that read-out and setting: the result for “GGCUAGAACUAGUGGAUCCCCCGGCGCCCGGCGGCUCGAGCCCGGGUAAGCUUUAAUCGUCUGCAUGCCGCCGGGCGCCAUGCCUGCAGGUCGACUCUAGAAAACAUG” reads -2.3. “GGCUAGAACUAGUGGAUCCCCCGGCGCCCGGCGGCUCGAGCCCGGGUAAGAGUAAACCGUCUGCAUGCCGCCGGGCGCCAUGCCUGCAGGUCGACUCUAGAAAACAUG”: the binding signal (log2 enrichment (interaction score)) in assay [1] was -2.29; in assay [2], -7.9. As to “GGCUAGAACUAGUGGAUCCCCCGGCGCCCGGCGGCUCGAGCCCGGGUAAGUGGUGAACGUCUGCAUGCCGCCGGGCGCCAUGCCUGCAGGUCGACUCUAGAAAACAUG”, the binding signal (log2 enrichment (interaction score)) in assay [1] was -2.02. “GGCUAGAACUAGUGGAUCCCCCGGCGCCCGGCGGCUCGAGCCCGGGUAAGUUGUAUGGGUCUGCAUGCCGCCGGGCGCCAUGCCUGCAGGUCGACUCUAGAAAACAUG”: the results for the binding signal (log2 enrichment (interaction score)) in assay [4] and in assay [3] were -1.66 and -1.07, respectively. Turning to “GGCUAGAACUAGUGGAUCCCCCGGCGCCCGGCGGCUCGAGCCCGGGUAAGUUAAUCUCGUCUGCAUGCCGCCGGGCGCCAUGCCUGCAGGUCGACUCUAGAAAACAUG”, the results for the binding signal (log2 enrichment (interaction score)) in assay [4] and in assay [3] were below -0.76 and -1.33, respectively. On to “GGCUAGAACUAGUGGAUCCCCCGGCGCCCGGCGGCUCGAGCCCGGGUAAGUUGACAACGUCUGCAUGCCGCCGGGCGCCAUGCCUGCAGGUCGACUCUAGAAAACAUG”, for which the binding signal (log2 enrichment (interaction score)) in assay [1] was -2.35. On to “GGCUAGAACUAGUGGAUCCCCCGGCGCCCGGCGGCUCGAGCCCGGGUAAGUUCAAGAUGUCUGCAUGCCGCCGGGCGCCAUGCCUGCAGGUCGACUCUAGAAAACAUG”, for which the binding signal (log2 enrichment (interaction score)) in assay [1] was -2.61. Consider “GGCUAGAACUAGUGGAUCCCCCGGCGCCCGGCGGCUCGAGCCCGGGUAAGAUGGUGUUGUCUGCAUGCCGCCGGGCGCCAUGCCUGCAGGUCGACUCUAGAAAACAUG”, for which the binding signal (log2 enrichment (interaction score)) in assay [1] was -2.09; in assay [3], -0.6.

As to “GGCUAGAACUAGUGGAUCCCCCGGCGCCCGGCGGCUCGAGCCCGGGUAAGAGGAAUACGUCUGCAUGCCGCCGGGCGCCAUGCCUGCAGGUCGACUCUAGAAAACAUG”, the binding signal (log2 enrichment (interaction score)) in assay [1] is -3.02; in assay [2], below -7.6. Taken in the same sequence, the figures for “GGCUAGAACUAGUGGAUCCCCCGGCGCCCGGCGGCUCGAGCCCGGGUAAGUGGGCGUCGUCUGCAUGCCGCCGGGCGCCAUGCCUGCAGGUCGACUCUAGAAAACAUG” were -2.38 and -7.08. “GGCUAGAACUAGUGGAUCCCCCGGCGCCCGGCGGCUCGAGCCCGGGUAAGGGUAAAUAGUCUGCAUGCCGCCGGGCGCCAUGCCUGCAGGUCGACUCUAGAAAACAUG”: the binding signal (log2 enrichment (interaction score)) in assay [4] is below -1; in assay [2] it was below -7.8; in assay [5], below -6.1.
